The values below come from publication PMC10457402.

Amino acid sequences for entries named in this document (tags omitted).
UniProt Q9BUL5: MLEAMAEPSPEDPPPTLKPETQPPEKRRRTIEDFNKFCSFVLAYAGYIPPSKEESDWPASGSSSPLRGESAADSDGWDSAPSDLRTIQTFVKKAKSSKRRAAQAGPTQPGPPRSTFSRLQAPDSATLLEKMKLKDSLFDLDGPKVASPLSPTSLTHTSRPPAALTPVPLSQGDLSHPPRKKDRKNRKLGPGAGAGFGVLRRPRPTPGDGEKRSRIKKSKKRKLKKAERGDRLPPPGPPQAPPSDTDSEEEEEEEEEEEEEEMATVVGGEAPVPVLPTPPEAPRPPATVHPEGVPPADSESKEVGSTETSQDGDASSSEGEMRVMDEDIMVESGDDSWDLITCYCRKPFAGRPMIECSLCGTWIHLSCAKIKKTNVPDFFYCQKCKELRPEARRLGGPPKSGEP
UniProt O43707: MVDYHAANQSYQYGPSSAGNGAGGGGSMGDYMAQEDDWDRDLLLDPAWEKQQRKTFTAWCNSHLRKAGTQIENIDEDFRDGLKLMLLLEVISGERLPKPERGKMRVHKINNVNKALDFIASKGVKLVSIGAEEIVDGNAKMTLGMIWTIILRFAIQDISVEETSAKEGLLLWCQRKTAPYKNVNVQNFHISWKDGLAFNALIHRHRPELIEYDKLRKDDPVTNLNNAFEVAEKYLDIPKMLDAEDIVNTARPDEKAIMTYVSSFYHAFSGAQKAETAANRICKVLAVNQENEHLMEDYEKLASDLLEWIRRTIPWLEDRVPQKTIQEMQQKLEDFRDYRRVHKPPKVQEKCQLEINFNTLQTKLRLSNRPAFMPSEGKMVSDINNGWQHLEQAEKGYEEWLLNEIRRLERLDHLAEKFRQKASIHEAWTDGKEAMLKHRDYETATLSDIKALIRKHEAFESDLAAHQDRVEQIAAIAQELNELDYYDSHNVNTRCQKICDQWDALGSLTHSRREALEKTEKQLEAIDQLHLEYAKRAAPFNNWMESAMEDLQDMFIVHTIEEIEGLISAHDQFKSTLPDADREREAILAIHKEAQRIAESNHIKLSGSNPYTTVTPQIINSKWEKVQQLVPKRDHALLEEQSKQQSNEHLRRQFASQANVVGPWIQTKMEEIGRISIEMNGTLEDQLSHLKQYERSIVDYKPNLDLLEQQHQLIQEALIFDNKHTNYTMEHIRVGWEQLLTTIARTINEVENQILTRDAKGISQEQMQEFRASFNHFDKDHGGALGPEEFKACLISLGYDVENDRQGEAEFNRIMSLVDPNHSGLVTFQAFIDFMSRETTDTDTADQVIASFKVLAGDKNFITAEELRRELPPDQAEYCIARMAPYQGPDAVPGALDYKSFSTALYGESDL
UniProt Q9H0F5: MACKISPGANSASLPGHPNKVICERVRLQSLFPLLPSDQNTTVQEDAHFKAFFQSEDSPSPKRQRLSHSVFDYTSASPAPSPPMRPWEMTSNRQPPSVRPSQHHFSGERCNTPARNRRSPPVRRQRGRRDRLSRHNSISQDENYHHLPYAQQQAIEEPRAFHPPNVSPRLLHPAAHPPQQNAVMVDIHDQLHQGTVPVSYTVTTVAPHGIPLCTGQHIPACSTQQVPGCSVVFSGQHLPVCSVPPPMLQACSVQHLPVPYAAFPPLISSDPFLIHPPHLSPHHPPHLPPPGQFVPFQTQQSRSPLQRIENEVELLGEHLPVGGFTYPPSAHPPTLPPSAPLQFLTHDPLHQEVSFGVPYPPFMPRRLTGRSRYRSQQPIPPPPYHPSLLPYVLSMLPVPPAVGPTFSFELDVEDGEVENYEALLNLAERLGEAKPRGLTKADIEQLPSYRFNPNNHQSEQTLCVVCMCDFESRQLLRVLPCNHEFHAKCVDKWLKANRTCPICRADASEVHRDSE

Experiment [1] deals with PHF23 expressed from the PHF23 cDNA plasmid (myc-tag) (human) (UniProt Q9BUL5). As to the kind of experiment: co-IP; A549 and H1299 cells transfected with PHF23 or PHF23-ΔPHD cDNA (myc-tag); immunoblot for ACTN4. (In western blotting, separated proteins are transferred to a membrane and probed.)
The target of experiment [2] is Plant homologous structural domain finger protein 23 (PHF23) (human) (UniProt Q9BUL5). Briefly: co-IP; A549 and H1299 cells after separation of nuclear and cytoplasmic proteins; co-immunoprecipitation from the fractions.
Experiment [3] has the same target. As to the kind of experiment: co-IP; A549 and H1299 cell lysates; target antibody (6 µg) or anti-rabbit IgG overnight at 4 °C, protein A/G beads, immunoblot.
In experiment [4] the target is Alpha-actinin-4 (ACTN4) (human (endogenous in H1299 and A549)) (UniProt O43707). As to the kind of experiment: co-IP; endogenous ACTN4 and RNF38 in NSCLC cells.
The target is the same in experiment [5]. As to the kind of experiment: co-IP; quantitative IP in A549 and H1299 cells with increasing PHF23 overexpression.

These are yes or no findings as the source states them, for the method shown. Binding seen in cells or lysates may run through a third protein. Some binding calls cover weakened binding; strength is not graded here.

Turning to “Alpha-actinin-4 (ACTN4) (from UniProt O43707 1-911)”, the binding result in experiment [1], in experiment [2] and in experiment [3] was “binds” in each case.
For the substance “RING finger protein 38 (RNF38) (from UniProt Q9H0F5 1-515)”, the binding entry in experiment [4] and in experiment [5] was “binds” each time.
